Further values from the same series stand in other lists.
Legend:
[1] = species: Homo sapiens; assay: Selectivity for p38alpha MAP kinase (unknown origin) over CLK4 (unknown origin)
[2] = species: Homo sapiens; assay: Selectivity for p38alpha MAP kinase (unknown origin) over GRK5 (unknown origin)
[3] = species: Homo sapiens; assay: Selectivity for p38alpha MAP kinase (unknown origin) over NEK7 (unknown origin)
[4] = species: Homo sapiens; assay: Selectivity for p38alpha MAP kinase (unknown origin) over ABL1 T315I mutant (unknown origin)
[5] = species: Homo sapiens; assay: Selectivity for p38alpha MAP kinase (unknown origin) over CK2-alpha1 (unknown origin)
[6] = species: Homo sapiens; assay: Selectivity for p38alpha MAP kinase (unknown origin) over DYRK1A (unknown origin)
[7] = species: Homo sapiens; assay: Selectivity for p38alpha MAP kinase (unknown origin) over CAMK2B (unknown origin)
[8] = species: Homo sapiens; assay: Selectivity for p38alpha MAP kinase (unknown origin) over WNK3 (unknown origin)
[9] = species: Homo sapiens; assay: Selectivity for p38alpha MAP kinase (unknown origin) over MET Y1230D mutant (unknown origin)
[10] = species: Homo sapiens; assay: Selectivity for p38alpha MAP kinase (unknown origin) over EIF2AK2 (unknown origin)
[11] = species: Homo sapiens; assay: Selectivity for p38alpha MAP kinase (unknown origin) over MET D1228N mutant (unknown origin)
[12] = species: Homo sapiens; assay: Selectivity for p38alpha MAP kinase (unknown origin) over MARK3 (unknown origin)
[13] = species: Homo sapiens; assay: Selectivity for p38alpha MAP kinase (unknown origin) over PKC-mu (unknown origin)
[14] = species: Homo sapiens; assay: Selectivity for p38alpha MAP kinase (unknown origin) over MUSK (unknown origin)
[15] = species: Homo sapiens; assay: Selectivity for p38alpha MAP kinase (unknown origin) over TRK-B (unknown origin)
[16] = species: Homo sapiens; assay: Selectivity for p38alpha MAP kinase (unknown origin) over ABL1 H396P mutant (unknown origin)
[17] = species: Homo sapiens; assay: Selectivity for p38alpha MAP kinase (unknown origin) over S6K (unknown origin)
[18] = species: Homo sapiens; assay: Selectivity for p38alpha MAP kinase (unknown origin) over LYN (unknown origin)
[19] = species: Homo sapiens; assay: Selectivity for p38alpha MAP kinase (unknown origin) over MAP3K11 (unknown origin)
[20] = species: Homo sapiens; assay: Selectivity for p38alpha MAP kinase (unknown origin) over CHK2 (unknown origin)
[21] = species: Homo sapiens; assay: Selectivity for p38alpha MAP kinase (unknown origin) over TGFB-R1 (unknown origin)
[22] = species: Homo sapiens; assay: Selectivity for p38alpha MAP kinase (unknown origin) over B-RAF V600E (unknown origin)
[23] = species: Homo sapiens; assay: Selectivity for p38alpha MAP kinase (unknown origin) over STK39 (unknown origin)
[24] = species: Homo sapiens; assay: Selectivity for p38alpha MAP kinase (unknown origin) over ABL1 G250E mutant (unknown origin)
[25] = species: Homo sapiens; assay: Selectivity for p38alpha MAP kinase (unknown origin) over ERK1 (unknown origin)
[26] = species: Homo sapiens; assay: Selectivity for p38alpha MAP kinase (unknown origin) over PRKD2 (unknown origin)
[27] = species: Homo sapiens; assay: Selectivity for p38alpha MAP kinase (unknown origin) over PKC-gamma (unknown origin)
[28] = species: Homo sapiens; assay: Selectivity for p38alpha MAP kinase (unknown origin) over CDK8/CycC (unknown origin)
[29] = species: Homo sapiens; assay: Selectivity for p38alpha MAP kinase (unknown origin) over CDK2/CycE (unknown origin)
[30] = species: Homo sapiens; assay: Selectivity for p38alpha MAP kinase (unknown origin) over JNK2 (unknown origin)
[31] = species: Homo sapiens; assay: Selectivity for p38alpha MAP kinase (unknown origin) over EGFR 747 to 749 deletion/A750P mutant (unknown origin)
[32] = species: Homo sapiens; assay: Selectivity for p38alpha MAP kinase (unknown origin) over MAP4K2 (unknown origin)
[33] = species: Homo sapiens; assay: Selectivity for p38alpha MAP kinase (unknown origin) over CK2-alpha2 (unknown origin)
[34] = species: Homo sapiens; assay: Selectivity for p38alpha MAP kinase (unknown origin) over PRKG2 (unknown origin)
[35] = species: Homo sapiens; assay: Selectivity for p38alpha MAP kinase (unknown origin) over HIPK1 (unknown origin)
[36] = species: Homo sapiens; assay: Selectivity for p38alpha MAP kinase (unknown origin) over wild type FGFR3 (unknown origin)
[37] = species: Homo sapiens; assay: Selectivity for p38alpha MAP kinase (unknown origin) over CAMK2A (unknown origin)
[38] = species: Homo sapiens; assay: Selectivity for p38alpha MAP kinase (unknown origin) over FGFR1 V561M mutant (unknown origin)
[39] = species: Homo sapiens; assay: Selectivity for p38alpha MAP kinase (unknown origin) over MST3 (unknown origin)
[40] = species: Homo sapiens; assay: Selectivity for p38alpha MAP kinase (unknown origin) over AKT3 (unknown origin)
[41] = species: Homo sapiens; assay: Selectivity for p38alpha MAP kinase (unknown origin) over CAMKK1 (unknown origin)
[42] = species: Homo sapiens; assay: Selectivity for p38alpha MAP kinase (unknown origin) over PLK1 (unknown origin)
[43] = species: Homo sapiens; assay: Selectivity for p38alpha MAP kinase (unknown origin) over FRK (unknown origin)
[44] = species: Homo sapiens; assay: Selectivity for p38alpha MAP kinase (unknown origin) over MST4 (unknown origin)
[45] = species: Homo sapiens; assay: Selectivity for p38alpha MAP kinase (unknown origin) over IKK-epsilon (unknown origin)
[46] = species: Homo sapiens; assay: Selectivity for p38alpha MAP kinase (unknown origin) over NEK1 (unknown origin)
[47] = species: Homo sapiens; assay: Selectivity for p38alpha MAP kinase (unknown origin) over RPS6KA2 (unknown origin)
[48] = species: Homo sapiens; assay: Selectivity for p38alpha MAP kinase (unknown origin) over IKK-beta (unknown origin)
[49] = species: Homo sapiens; assay: Selectivity for p38alpha MAP kinase (unknown origin) over TAOK2 (unknown origin)
[50] = species: Homo sapiens; assay: Selectivity for p38alpha MAP kinase (unknown origin) over ITK (unknown origin)
[51] = species: Homo sapiens; assay: Selectivity for p38alpha MAP kinase (unknown origin) over FAK (unknown origin)
[52] = species: Homo sapiens; assay: Selectivity for p38alpha MAP kinase (unknown origin) over DMPK (unknown origin)
[53] = species: Homo sapiens; assay: Selectivity for p38alpha MAP kinase (unknown origin) over CDK2/CycA (unknown origin)
[54] = species: Homo sapiens; assay: Selectivity for p38alpha MAP kinase (unknown origin) over EGFR L861Q mutant (unknown origin)
[55] = species: Homo sapiens; assay: Selectivity for p38alpha MAP kinase (unknown origin) over SAK (unknown origin)
[56] = species: Homo sapiens; assay: Selectivity for p38alpha MAP kinase (unknown origin) over LRRK2 R1441C mutant (unknown origin)
[57] = species: Homo sapiens; assay: Selectivity for p38alpha MAP kinase (unknown origin) over MELK (unknown origin)
[58] = species: Homo sapiens; assay: Selectivity for p38alpha MAP kinase (unknown origin) over JAK1 (unknown origin)
[59] = species: Homo sapiens; assay: Selectivity for p38alpha MAP kinase (unknown origin) over PAK6 (unknown origin)
[60] = species: Homo sapiens; assay: Selectivity for p38alpha MAP kinase (unknown origin) over RPS6KA6 (unknown origin)
[61] = species: Homo sapiens; assay: Selectivity for p38alpha MAP kinase (unknown origin) over MAP4K4 (unknown origin)
[62] = species: Homo sapiens; assay: Selectivity for p38alpha MAP kinase (unknown origin) over CK1-gamma2 (unknown origin)
[63] = species: Homo sapiens; assay: Selectivity for p38alpha MAP kinase (unknown origin) over MYLK2 (unknown origin)
[64] = species: Homo sapiens; assay: Selectivity for p38alpha MAP kinase (unknown origin) over PKC-alpha (unknown origin)

Selectivity ratio [1]: > 1000
Selectivity ratio [2]: > 1000
Selectivity ratio [3]: > 1000
Selectivity ratio [4]: > 1000
Selectivity ratio [5]: > 1000
Selectivity ratio [6]: > 1000
Selectivity ratio [7]: > 1000
Selectivity ratio [8]: > 1000
Selectivity ratio [9]: > 1000
Selectivity ratio [10]: > 1000
Selectivity ratio [11]: > 1000
Selectivity ratio [12]: > 1000
Selectivity ratio [13]: > 1000
Selectivity ratio [14]: > 1000
Selectivity ratio [15]: > 1000
Selectivity ratio [16]: > 1000
Selectivity ratio [17]: > 1000
Selectivity ratio [18]: > 1000
Selectivity ratio [19]: > 1000
Selectivity ratio [20]: > 1000
Selectivity ratio [21]: > 1000
Selectivity ratio [22]: > 1000
Selectivity ratio [23]: > 1000
Selectivity ratio [24]: > 1000
Selectivity ratio [25]: > 1000
Selectivity ratio [26]: > 1000
Selectivity ratio [27]: > 1000
Selectivity ratio [28]: > 1000
Selectivity ratio [29]: > 1000
Selectivity ratio [30]: > 1000
Selectivity ratio [31]: > 1000
Selectivity ratio [32]: > 1000
Selectivity ratio [33]: > 1000
Selectivity ratio [34]: > 1000
Selectivity ratio [35]: > 1000
Selectivity ratio [36]: > 1000
Selectivity ratio [37]: > 1000
Selectivity ratio [38]: > 1000
Selectivity ratio [39]: > 1000
Selectivity ratio [40]: > 1000
Selectivity ratio [41]: > 1000
Selectivity ratio [42]: > 1000
Selectivity ratio [43]: > 1000
Selectivity ratio [44]: > 1000
Selectivity ratio [45]: > 1000
Selectivity ratio [46]: > 1000
Selectivity ratio [47]: > 1000
Selectivity ratio [48]: > 1000
Selectivity ratio [49]: > 1000
Selectivity ratio [50]: > 1000
Selectivity ratio [51]: > 1000
Selectivity ratio [52]: > 1000
Selectivity ratio [53]: > 1000
Selectivity ratio [54]: > 1000
Selectivity ratio [55]: > 1000
Selectivity ratio [56]: > 1000
Selectivity ratio [57]: > 1000
Selectivity ratio [58]: > 1000
Selectivity ratio [59]: > 1000
Selectivity ratio [60]: > 1000
Selectivity ratio [61]: > 1000
Selectivity ratio [62]: > 1000
Selectivity ratio [63]: > 1000
Selectivity ratio [64]: > 1000
Structure (SMILES): Cc1cc(F)c(NC(=O)c2ccsc2)cc1Nc1ccc2c(c1)OCc1ccc(OC[C@H](O)CO)cc1C2=O

Reference: ChEMBL document CHEMBL3085714 (J Med Chem, 2013)
